In the supplement of paper PMC4635364:
Where a name gives a salt, the structure may show the parent alone. Some of the results follow. This data set is noisy: repeats of one test often differ as much as different tests do.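 Human fetal ventral-midbrain neural progenitor line ReNCell VM, differentiated without mitogens. Images stained for doublecortin (early neurons) or tyrosine hydroxylase (dopaminergic neurons) were scored by blinded raters against untreated wells (0 = no change). Repeats and both raters were averaged, and compounds averaging 2 or higher were picked as hits for retesting.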

Experiments:
ReNCell VM [1] = test: neuronal differentiation score (DCX+ cell fraction vs untreated, manual image score) (score (-3 to 3)); higher = more neuronal differentiation; conditions: 2 uM, 2 weeks
ReNCell VM [2] = test: dopaminergic neuron differentiation score (TH+ cell fraction vs untreated, manual image score) (score (0 to 3)); higher = more TH+ dopaminergic neuron differentiation; conditions: 2 uM, 4 weeks, BDNF 10 ng/ml + GDNF 10 ng/ml

O=C(C=Cc1ccc(O)cc1)c1ccccc1O
neuronal differentiation score (ReNCell VM [1]; library: Spectrum): inactive: 0
dopaminergic neuron differentiation score (ReNCell VM [2]; library: Spectrum): inactive: 0

CCCOc1ccc(C(=O)OCCN(CC)CC)cc1N [Proparacaine hydrochloride]
neuronal differentiation score (ReNCell VM [1]; library: Prestwick): inactive: 0
dopaminergic neuron differentiation score (ReNCell VM [2]; library: Prestwick): active: 3

COC(=O)C[C@H]1C2(C)CC34OC5(C)O[C@@]6([C@H](OC(C)=O)C(OC(C)=O)[C@]7(C)C(/C(=C(/O)C(C)C)C(=O)O[C@H]7c7ccoc7)[C@@]6(O5)[C@H](OC(C)=O)[C@@]3(O)C2OC(=O)C(C)C)[C@]14C (some centres not stated)
neuronal differentiation score (ReNCell VM [1]; library: Spectrum): inactive: 0
dopaminergic neuron differentiation score (ReNCell VM [2]; library: Spectrum): inactive: 0

C=CC(N)CCC(=O)O (configuration not stated) [Vigabatrin]
neuronal differentiation score (ReNCell VM [1]; library: Prestwick): inactive: 0
dopaminergic neuron differentiation score (ReNCell VM [2]; library: Prestwick): inactive: 0

Cn1cnc([N+](=O)[O-])c1Sc1ncnc2[nH]cnc12
neuronal differentiation score (ReNCell VM [1]; library: Spectrum): inactive: 0
dopaminergic neuron differentiation score (ReNCell VM [2]; library: Spectrum): inactive: 0

COc1c(C)c2c(c(O)c1C/C=C(\C)CCC(=O)OCCN1CCOCC1)C(=O)OC2
neuronal differentiation score (ReNCell VM [1]; library: Spectrum): inactive: 0
dopaminergic neuron differentiation score (ReNCell VM [2]; library: Spectrum): inactive: 0

COc1ccc2c(c1)c(CC(=O)O)c(C)n2Cc1ccc(Cl)cc1 [1-(4-Chlorobenzyl)-5-methoxy-2-methylindole-3-acetic acid]
neuronal differentiation score (ReNCell VM [1]; library: LOPAC): inactive: 0
dopaminergic neuron differentiation score (ReNCell VM [2]; library: LOPAC): inactive: 0

CCc1nc(N)nc(N)c1-c1ccc(Cl)cc1 [Pyrimethamine]
neuronal differentiation score (ReNCell VM [1]; library: Prestwick): inactive: 0
dopaminergic neuron differentiation score (ReNCell VM [2]; library: Prestwick): inactive: 0

CC(C)C[C@H](NP(=O)(O)O[C@H]1O[C@H](C)[C@@H](O)[C@H](O)[C@@H]1O)C(=O)N[C@@H](Cc1c[nH]c2ccccc12)C(=O)O [Phosphoramidon disodium]
neuronal differentiation score (ReNCell VM [1]; library: LOPAC): inactive: 0
dopaminergic neuron differentiation score (ReNCell VM [2]; library: LOPAC): inactive: 0

N[C@@H](Cc1cc(I)c(Oc2ccc(O)c(I)c2)c(I)c1)C(=O)O
neuronal differentiation score (ReNCell VM [1]; library: Spectrum): inactive: -1
dopaminergic neuron differentiation score (ReNCell VM [2]; library: Spectrum): inactive: 0

O=C(OCC(O)CO)c1ccccc1Nc1ccnc2cc(Cl)ccc12 (configuration not stated) [Glafenine hydrochloride]
neuronal differentiation score (ReNCell VM [1]; library: Prestwick): inactive: 0
dopaminergic neuron differentiation score (ReNCell VM [2]; library: Prestwick): inactive: 0

Cc1cccc(C)c1OCC(C)N (configuration not stated)
neuronal differentiation score (ReNCell VM [1]; library: Spectrum): inactive: 0
dopaminergic neuron differentiation score (ReNCell VM [2]; library: Spectrum): inactive: 0

C[C@@H](NCc1cc(Br)cc2[nH]c(=O)c(=O)[nH]c12)P(=O)(O)O
neuronal differentiation score (ReNCell VM [1]; library: Tocriscreen): inactive: 0
dopaminergic neuron differentiation score (ReNCell VM [2]; library: Tocriscreen): inactive: 0

CNC(C)CCC=C(C)C (configuration not stated) [Isometheptene mucate]
neuronal differentiation score (ReNCell VM [1]; library: Prestwick): inactive: 0
dopaminergic neuron differentiation score (ReNCell VM [2]; library: Prestwick): inactive: 0

CC1Cc2ccccc2N1NC(=O)c1ccc(Cl)c(S(N)(=O)=O)c1 (configuration not stated)
neuronal differentiation score (ReNCell VM [1]; library: Spectrum): inactive: 0
dopaminergic neuron differentiation score (ReNCell VM [2]; library: Spectrum): inactive: 0

CNC[C@H](O)c1ccc(O)c(O)c1 [(-)-Epinephrine bitartrate]
neuronal differentiation score (ReNCell VM [1]; library: LOPAC): inactive: 0
dopaminergic neuron differentiation score (ReNCell VM [2]; library: LOPAC): inactive: 0

O=c1cc(-c2ccc(O)cc2)oc2c([C@@H]3O[C@H](CO)[C@@H](O)[C@H](O)[C@H]3O)c(O)cc(O)c12 [Vitexin]
neuronal differentiation score (ReNCell VM [1]; library: Phytochemical): inactive: 0
dopaminergic neuron differentiation score (ReNCell VM [2]; library: Phytochemical): inactive: 0

C=C1/C(=C\C=C2/CCC[C@]3(C)[C@@H]([C@H](C)CCCC(C)C)CC[C@@H]23)C[C@@H](O)C[C@@H]1O [Alfacalcidol]
neuronal differentiation score (ReNCell VM [1]; library: Prestwick): inactive: 0
dopaminergic neuron differentiation score (ReNCell VM [2]; library: Prestwick): inactive: 0

CC(=O)N(O)CCCCCNC(=O)CCC(=O)N(O)CCCCCNC(=O)CCC(=O)N(O)CCCCCN
neuronal differentiation score (ReNCell VM [1]; library: Spectrum): inactive: 0
dopaminergic neuron differentiation score (ReNCell VM [2]; library: Spectrum): inactive: 0

CN(C/C=C/c1ccccc1)Cc1cccc2ccccc12 [Naftifine hydrochloride]
neuronal differentiation score (ReNCell VM [1]; library: Prestwick): inactive: 0
dopaminergic neuron differentiation score (ReNCell VM [2]; library: Prestwick): inactive: 0

Clc1ccc2c(c1)N=C(N1CCNCC1)c1ccccc1N2 [N-Desmethylclozapine]
neuronal differentiation score (ReNCell VM [1]; library: Tocriscreen): inactive: 0
dopaminergic neuron differentiation score (ReNCell VM [2]; library: Tocriscreen): inactive: 0
